For the experiment, the target named is exemplary anti-ROR1 (ROR 1-1) chimeric antigen receptor. Briefly: flow cytometry competition on primary CAR-T cells; hROR1-Fc at 10 ug/mL.

By UniProt entry, the sequences of proteins in these tests, tags left out. Residues count along the entry.
UniProt Q01973, residues 30-403: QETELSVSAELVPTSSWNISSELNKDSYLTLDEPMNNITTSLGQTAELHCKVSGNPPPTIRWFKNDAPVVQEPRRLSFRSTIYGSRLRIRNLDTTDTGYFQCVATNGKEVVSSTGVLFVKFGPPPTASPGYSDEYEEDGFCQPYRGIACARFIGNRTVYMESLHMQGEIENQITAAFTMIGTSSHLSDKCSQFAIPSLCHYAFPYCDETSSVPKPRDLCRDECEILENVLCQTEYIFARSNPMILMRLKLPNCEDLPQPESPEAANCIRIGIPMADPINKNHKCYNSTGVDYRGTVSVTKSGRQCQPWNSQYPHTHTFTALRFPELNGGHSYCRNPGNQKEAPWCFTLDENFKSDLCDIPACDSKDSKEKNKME

This is an account of results in US20230324408A1.

No constants are given. Whether binding was seen depends on the method and setting. Some binding calls cover weakened binding; strength is not graded here.

Regarding “soluble recombinant ROR1-Fc (soluble human ROR1 fused to an Fc region of an IgG) (from UniProt Q01973 30-403) (Fc fusion)”, the binding result is “binds”.
